The values below come from publication PMC9599704 (Biomolecules, 2022).

The nature of this data set: peptide synthesis. The note with it: lipidation step.

HELM strings list residues between dots; [ac] is acetyl, [am] amide, other brackets name non-standard units. Some results are limits rather than exact numbers.

For “PEPTIDE1{[pGlu].L.Y.S.A.L.A.N.K.C.C.H.V.G.C.T.K.R.S.L.A.R.F.C}|PEPTIDE2{[Pal].[gGluOtBu].D.S.W.M.E.E.V.I.K.L.C.G.R.E.L.V.R.A.Q.I.A.I.C.G.M.S.T.W.S}$PEPTIDE1,PEPTIDE1,10:R3-15:R3|PEPTIDE1,PEPTIDE2,11:R3-13:R3|PEPTIDE1,PEPTIDE2,24:R3-25:R3$$$V2.0”, the “final HPLC purity” value (HPLC) is on record as greater than 98%. Moreover, under “relative to RLX2”, the step yield was 30–35%.
